Measurements reported in PubChem BioAssay AID1259254 (NCATS, 2017).

Assay: 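Gene knock-downs that lead to re-replication, shown by excess G2 DNA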 (primary screen)
Cells: human HCT116 colorectal cancer cells
Reagent: single siRNA against human genes
Timing: 3 days
Detection: 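Imaged Hoechst DNA stain sorts each cell into a cycle phase by DNA amount; per plate, G2 fraction set to 0% for non-targeting and 100% for GMNN siRNA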
Reading the numbers: G2 robust z-score and G2 cells, % of GMNN control: higher = more G2 cells, more excess DNA replication; raw share of cells in G2: higher = larger share of cells with G2 DNA content
Rule for the call: 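Active siRNAs have a G2 robust z of 5 or more median absolute deviations over the median, which in these data means about 38% or higher of GMNN control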
Shown is a random part of about 59,000 reagents. About 1,550 of all reagents (2.6%) count as active. 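G2 share is only a proxy for re-replication; each gene was hit by three separate siRNAs, and active genes were retested.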 Raw values vary from plate to plate and are shown uncorrected. Unmarked entries are inactive. Reagents against one gene are numbered here. The record does not give: the amount of reagent.

| gene | reagent | G2 robust z-score | G2 cells, % of GMNN control | raw share of cells in G2 (%) |
| --- | --- | --- | --- | --- |
| HSPA8P14 (GeneID 642580) | 1 | 2.4 | 19.8 | 11.3 |
| HSPA8P14 (GeneID 642580) | 2 | -0.209 | 1.5 | 3.99 |
| HSPA8P14 (GeneID 642580) | 3 | -0.673 | -1.77 | 2.52 |
| PRDM10 (GeneID 56980) | 1 | 0.249 | 4.72 | 6.13 |
| PRDM10 (GeneID 56980) | 2 | -0.134 | 2.02 | 5.18 |
| PRDM10 (GeneID 56980) | 3 | -0.349 | 0.511 | 6.65 |
| IL9R (GeneID 3581) | 1 | 3.07 | 24.6 | 15 |
| IL9R (GeneID 3581) | 2 | 4.54 | 34.9 | 17 |
| IL9R (GeneID 3581) | 3 | 9.37 (active) | 68.9 | 30.1 |
| OTUD6B (GeneID 51633) | 1 | 1.41 | 12.9 | 7.76 |
| OTUD6B (GeneID 51633) | 2 | -0.492 | -0.491 | 2.79 |
| OTUD6B (GeneID 51633) | 3 | -0.718 | -2.08 | 3.48 |
| KCNA3 (GeneID 3738) | 1 | -0.892 | -3.31 | 4.08 |
| KCNA3 (GeneID 3738) | 2 | -0.482 | -0.422 | 4.64 |
| KCNA3 (GeneID 3738) | 3 | 0.0797 | 3.53 | 5.75 |
| C1QC (GeneID 714) | 1 | -0.701 | -1.96 | 4.38 |
| C1QC (GeneID 714) | 2 | -0.5 | -0.551 | 3.89 |
| C1QC (GeneID 714) | 3 | 0.778 | 8.44 | 6.83 |

The list goes on, starting with the last 4 of the part before.
| gene | reagent | G2 robust z-score | G2 cells, % of GMNN control | raw share of cells in G2 (%) |
| --- | --- | --- | --- | --- |
| KCNA3 (GeneID 3738) | 3 | 0.0797 | 3.53 | 5.75 |
| C1QC (GeneID 714) | 1 | -0.701 | -1.96 | 4.38 |
| C1QC (GeneID 714) | 2 | -0.5 | -0.551 | 3.89 |
| C1QC (GeneID 714) | 3 | 0.778 | 8.44 | 6.83 |
| EP400 (GeneID 57634) | 1 | 2.94 | 23.7 | 12.7 |
| EP400 (GeneID 57634) | 2 | 1.36 | 12.6 | 8.79 |
| EP400 (GeneID 57634) | 3 | 3.33 | 26.4 | 16.6 |
| ZNF695 (GeneID 57116) | 1 | 0.88 | 9.16 | 10.4 |
| ZNF695 (GeneID 57116) | 2 | -0.657 | -1.66 | 3.85 |
| ZNF695 (GeneID 57116) | 3 | -0.672 | -1.76 | 3.6 |
| MOBP (GeneID 4336) | 1 | 1.88 | 16.2 | 11.9 |
| MOBP (GeneID 4336) | 2 | -0.223 | 1.4 | 4.77 |
| MOBP (GeneID 4336) | 3 | -0.576 | -1.09 | 2.96 |
| TOGARAM2 (GeneID 165186) | 1 | -0.632 | -1.48 | 3.07 |
| TOGARAM2 (GeneID 165186) | 2 | -0.0445 | 2.65 | 3.85 |
| TOGARAM2 (GeneID 165186) | 3 | 0.231 | 4.59 | 4.21 |
